PMC3118192
Results are given in words; binding and its absence hold for the method and conditions named. Binding seen in cells or lysates may run through a third protein. Some binding calls cover weakened binding; strength is not graded here. Where a sequence is shown, tags or fusion partners need not be part of it.

By UniProt entry, the sequences of proteins in these tests, tags left out.
UniProt P62330: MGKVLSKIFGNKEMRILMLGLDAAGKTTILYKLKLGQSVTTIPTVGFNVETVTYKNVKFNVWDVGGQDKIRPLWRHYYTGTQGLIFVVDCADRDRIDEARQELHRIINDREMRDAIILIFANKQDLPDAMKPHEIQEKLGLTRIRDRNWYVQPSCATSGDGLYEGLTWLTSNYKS

Target: T1, GST-GGA3 (Golgi-associated gamma adaptin ear-containing Arf binding protein 3) (UniProt Q9NZ52)
T1 sequence: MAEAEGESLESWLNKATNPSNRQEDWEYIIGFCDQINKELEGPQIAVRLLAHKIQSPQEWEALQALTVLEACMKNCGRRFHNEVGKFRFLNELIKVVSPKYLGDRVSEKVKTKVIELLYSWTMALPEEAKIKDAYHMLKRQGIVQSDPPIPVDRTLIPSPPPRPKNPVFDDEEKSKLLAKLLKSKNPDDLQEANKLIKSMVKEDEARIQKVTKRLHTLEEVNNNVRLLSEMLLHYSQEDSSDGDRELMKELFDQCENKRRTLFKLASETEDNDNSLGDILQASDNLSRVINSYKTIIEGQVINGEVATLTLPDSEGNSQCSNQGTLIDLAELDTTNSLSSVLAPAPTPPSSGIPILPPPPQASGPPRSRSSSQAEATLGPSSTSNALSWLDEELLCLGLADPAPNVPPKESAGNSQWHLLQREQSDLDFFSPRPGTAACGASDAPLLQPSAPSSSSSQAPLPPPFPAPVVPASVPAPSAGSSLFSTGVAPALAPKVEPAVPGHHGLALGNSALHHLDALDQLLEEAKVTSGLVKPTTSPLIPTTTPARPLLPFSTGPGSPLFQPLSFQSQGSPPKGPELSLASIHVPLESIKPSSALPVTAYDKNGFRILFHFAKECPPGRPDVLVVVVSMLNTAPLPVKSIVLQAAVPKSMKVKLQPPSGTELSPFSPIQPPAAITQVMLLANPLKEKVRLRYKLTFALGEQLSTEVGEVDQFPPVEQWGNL
Assay: pull-down; EZ-Detect Rac1 or Arf6 activation kits; GST fusion on glutathione beads, whole cell lysates of U251 cells treated with 10 uM MIPP or DMSO for 4 h or 24 h; western blot of the protein collected on the beads; only the target purified

- binding: binds
Substance: Arf6 (from UniProt P62330 1-175)
